Reference: PubChem BioAssay AID504810 (National Center for Advancing Translational Sciences (NCATS), 2011)
Among all 330,000 compounds or so, about 670 (0.2%) were called active. The inconclusive results got no clear call from the source; some entries with a clear call stand among them for comparison.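 How the source made its calls: active means activity change below a set negative limit, meaning inhibition stronger than a set level (cut at about -70% in these data); inconclusive means activity change between two set negative limits; inactive means the rest.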

Protein sequences, listed by entry. Tags and fused reporters are not part of them.
UniProt P16473, whole entry, looked up: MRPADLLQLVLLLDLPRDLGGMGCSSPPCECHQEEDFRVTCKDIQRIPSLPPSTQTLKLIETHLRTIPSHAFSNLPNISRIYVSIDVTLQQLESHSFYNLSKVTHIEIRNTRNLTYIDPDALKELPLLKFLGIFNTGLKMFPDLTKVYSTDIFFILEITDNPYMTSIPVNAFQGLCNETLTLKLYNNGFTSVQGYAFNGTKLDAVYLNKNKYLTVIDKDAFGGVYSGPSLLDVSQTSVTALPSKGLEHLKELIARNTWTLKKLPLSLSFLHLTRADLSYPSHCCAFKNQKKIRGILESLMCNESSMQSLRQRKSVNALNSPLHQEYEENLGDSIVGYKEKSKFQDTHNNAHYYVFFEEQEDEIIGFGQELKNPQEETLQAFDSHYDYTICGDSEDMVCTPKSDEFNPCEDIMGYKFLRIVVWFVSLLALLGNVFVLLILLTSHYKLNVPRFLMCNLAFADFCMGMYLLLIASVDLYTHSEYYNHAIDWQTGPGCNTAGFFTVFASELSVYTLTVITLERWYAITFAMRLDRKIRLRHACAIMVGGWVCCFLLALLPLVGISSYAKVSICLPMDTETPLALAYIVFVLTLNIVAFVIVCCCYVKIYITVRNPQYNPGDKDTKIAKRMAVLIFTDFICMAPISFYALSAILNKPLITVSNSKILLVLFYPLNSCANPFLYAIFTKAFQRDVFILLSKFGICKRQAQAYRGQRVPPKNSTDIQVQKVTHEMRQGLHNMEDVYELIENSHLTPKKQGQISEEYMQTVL

These compounds were tested against Thyrotropin receptor (Homo sapiens) (UniProt P16473) (assay: Antagonists of the Thyroid Stimulating Hormone Receptor: HTS campaign). Conditions: TSHR-expressing cells, TSH-stimulated cAMP HTRF, 2 h; at 11.5 µM; active compounds read low.
Source text: The thyroid-stimulating hormone receptor (TSHR) is a member of the 7 trans-membrane-spanning receptor (7TMR) family of cell surface receptors. TSHR-mediated hyperthyroidism is important in thyroid pathology. The development of small molecule antagonists of TSHR may lead to therapeutic approaches for TSHR-mediated hyperthyroidism caused by constitutively activating mutations or stimulating auto-antibodies associated with Graves' disease. Graves' disease is the leading cause of hyperthyroidism and is caused by autoantibodies that stimulate TSHR (TsAbs) causing thyroid growth and unregulated overproduction of thyroid hormones and existing treatments have liabilities (agranulocytosis). In addition, TSHRs are known to be expressed in multiple extrathyroidal tissues including bone, brain, kidney, testis, fat and cells of the immune system but the role of the TSHR in these tissues is not clear. Therefore, TSHR antagonists/inverse agonists could be used as probes of extrathyroidal TSHR function. Finally, TSHR inverse agonists, which are a subclass of antagonists that inhibit agonist-independent (or basal or constitutive) TSHR signaling, could be used to inhibit TSH-independent signaling in patients with recurrent or metastatic thyroid cancer who are receiving thyroid hormone to suppress TSH. In collaboration between scientist from the NCGC and the NIDDK, a miniaturized HTRF high-throughput screen was developed. It's a cell based assay, where an anti cAMP antibody contains a fluorescent cryptate tag (excitation 337 nm; emission 620 nm) and the acceptor is cAMP-d2 (excitation 620 nm; emission 665 nm). When antibody and cAMP-d2 interact and are excited by a 337 nm light, a FRET occurs resulting in emission at 665 nm. The assay is competition between cAMP-d2 and cAMP (from the cell lysate). The homogeneous protocol allows for one step dispense after stimulation that is automation friendly. NIH Chemical Genomics Center [NCGC] NIH Molecular Libraries Probe Centers Network [MLPCN] MLPCN Grant: MH090855-01 Assay Submitter (PI): Marvin Gerhengorn
1. 3ul of 200 TSHR freshly harvested cells/well are dispensed into a 1536 TC-treated white solid bottom plate. 2. Through pintool addition, 23nl of compounds and control in 100% DMSO are added to the plate. 3. Then 1ul of EC80 TSH (4nM final) is added to the plate. 4. Assay is incubated at 37 deg C for 2 hours. 5. 2ul of cAMP antibody diluted 1:20 in lysis buffer is added. 6. Immediately following, 2ul of d2 diluted 1:20 in HBSS is added seperately. 7. The assay is incubated for 30 minutes at ambient room temperature. 8. The result is obtained by using a ViewLux read-out with HTRF settings.
On the % scale 0 is the no-effect control and ±100 the full control effect.

Activity change, negative = inhibition, active:
Cc1ccc(C)c(N2CCN(S(=O)(=O)c3ccc4c(c3)CC(C)N4C(=O)C3CC3)CC2)c1 (centres undefined) -76.9%
N#CC(C#N)=C1C=CC=CN1/C(=C\c1ccco1)C(=O)c1ccc(Cl)cc1 -83.8%
CCCn1nc([N+](=O)[O-])c(C(C#N)c2nc3ccccc3o2)c(Cl)c1=O (centres undefined) -75.7%
Cc1cc(=O)oc2ccc(OCc3ccccc3)cc12 -118%

Activity change, negative = inhibition, inconclusive:
O=c1sc2ccccc2n1COc1ccc(Cl)cc1 -62.9%
COc1ccc2c(c1)c(CC(=O)NCc1cc([N+](=O)[O-])ccc1O)c(C)n2C(=O)c1ccc(Cl)cc1 -58.4%
Cc1cc(C)c(S(=O)(=O)c2ccccc2C)c(N(C)C)n1 -51.7%
CNc1nc(N)c(C(=O)C23CC4CC(CC(C4)C2)C3)s1 -50.2%
Cc1ccc(C)c(C(=O)OCC(=O)Nc2cccc(S(=O)(=O)N3CCCCC3)c2)c1 -53.2%
N#C/C(=C(/O)c1ccc2c(c1)OCO2)c1nc2cc(C(F)(F)F)ccc2s1 -55.2%
Cc1ccc2oc(C(=O)N3CCCCCC3)c(C)c2c1 -64.4%
O=C(Nc1ccc(Br)cc1)c1cccc(S(=O)(=O)Nc2cnc3ccccc3c2)c1 -58%
Cc1nc(N2CCN(S(=O)(=O)c3cccc4nonc34)CC2)c2c3c(sc2n1)CCCC3 -61.3%
CC(C)(C)N(Cc1ccccc1)C(=O)COC(=O)CCc1c[nH]c2ccccc12 -57.8%
Brc1c(Br)c(Br)c2n[nH]nc2c1Br -66.8%
Cc1ccc(-c2cnc(C3CC3)o2)cc1S(=O)(=O)Nc1ccccc1 -59.5%
Cc1ccc(S(=O)(=O)C(C#N)c2nc3ccccc3nc2N2CCC(C)CC2)cc1 (centres undefined) -53.4%

Two compounds drawn at random from those above, as already listed:
Activity change, negative = inhibition, inconclusive:
O=C(Nc1ccc(Br)cc1)c1cccc(S(=O)(=O)Nc2cnc3ccccc3c2)c1 -58%
COc1ccc2c(c1)c(CC(=O)NCc1cc([N+](=O)[O-])ccc1O)c(C)n2C(=O)c1ccc(Cl)cc1 -58.4%

Next part.

Activity change, negative = inhibition, inactive:
O=C(O)c1ccc2c3n(nc2c1)-c1ccc(Cl)cc1CO3 -0.0157%
COc1ccc(CC(=O)NCc2ccccc2)cc1 -5.35%
Cn1cc(C(=O)N/N=C/C=C/c2ccccc2)ccc1=O -9.76%
COc1cc(NC(=O)c2cc(-c3ccccc3Cl)on2)cc(OC)c1OC -23.6%
Oc1ccccc1Nc1nc(NCc2ccccc2)c2ccccc2n1 -16.4%
Nc1cc(Cl)nc(N/N=C/c2ccc([N+](=O)[O-])cc2)n1 39.4%
CC1=C(C)/C(=N\OC(=O)/C=C/c2ccccc2)C=CC1=O -5.66%
